# Publication PMC5996148
# Some of the results follow. For some of these results: The source does not settle which construct or isoform was used.
# Key:
# Assay in all cases: protein microarray (ProtoArray v5.0), streptavidin-Alexa Fluor 647
# Settings in all cases: 3'-biotin; 20 mM Tris (pH 7.5), 5 mM MgCl2, 100 mM KCl, 0.1% Tween-20, A/T-rich and random oligonucleotide blockers; temperature not stated; high values mean tight binding
# ACTC1 (human) = tested on: ACTC1 (human)
# ACTN2 (human) = tested on: ACTN2 (human)
# ACTN4 (human) = tested on: ACTN4 (human)
# ACY1 (human) = tested on: ACY1 (human)
# ACY3 (human) = tested on: ACY3 (human)
# ADD1 (human) = tested on: ADD1 (human)
# ADI1 (human) = tested on: ADI1 (human)
# ADRB2 = ADRB2 (UniProt P07550)
# ADRM1 (human) = tested on: ADRM1 (human)
# AFAP1L1 (human) = tested on: AFAP1L1 (human)
sequence,measurement,setting,value
GGGGACAGGGGTATGGGGAGGGG [G4-3 biotinylated (CtG)],binding signal,ACTC1 (human),-0.322 z-score
same,binding signal,ACTN2 (human),-0.333 z-score
same,binding signal,ACTN4 (human),-0.315 z-score
same,binding signal,ACY1 (human),-0.336 z-score
same,binding signal,ACY3 (human),-0.332 z-score
same,binding signal,ADD1 (human),-0.339 z-score
same,binding signal,ADI1 (human),-0.34 z-score
same,binding signal,ADRB2,-0.287 z-score
same,binding signal,ADRM1 (human),-0.339 z-score
same,binding signal,AFAP1L1 (human),-0.316 z-score

# A stretch of the results above:
sequence,measurement,setting,value
GGGGACAGGGGTATGGGGAGGGG [G4-3 biotinylated (CtG)],binding signal,ADI1 (human),-0.34 z-score
same,binding signal,ADRB2,-0.287 z-score
